# Experimental data taken from the supplement of paper PMC11348887.
# Counter-ions that a name gives are not always drawn. The list shows a part of the results. Most values lie at the level of the controls, where differences are scatter.
# Tests used:
# Settings in all cases: 5 µM; treatment: days 7-14 after plating, readout day 21
# [1] = tested on: hPSC-derived cortical neurons (WA09); assay: nucleus area z-score vs screen plate; higher = larger nuclei (more mature)
# [2] = tested on: hPSC-derived cortical neurons (WA09); assay: total neurite length per nucleus (MAP2) z-score; higher = more neurite growth
# [3] = tested on: hPSC-derived cortical neurons (WA09); assay: nucleus roundness z-score vs screen plate; higher = rounder nuclei (more mature)
# [4] = tested on: hPSC-derived cortical neurons (WA09); assay: KCl-induced FOS+/EGR-1+ double-positive nuclei fraction z-score (KCl minus unstimulated); higher = stronger activity-induced IEG response
Compound,nucleus area z-score [1],total neurite length per nucleus (z-score) [2],nucleus roundness z-score [3],KCl-induced FOS+/EGR-1+ double-positive nuclei fraction z-score [4]
NC(CO)C(=O)NNCc1ccc(O)c(O)c1O (stereo unspecified) [Benserazide HCl],-0.554,0.599,0.98,1.01
CC1(C)O[C@@H]2[C@@H](CO[C@@]3(COS(N)(=O)=O)OC(C)(C)O[C@@H]23)O1 [Topiramate],-0.0331,0.48,-1.31,-1.04
FC(F)(F)Oc1ccc2nc(-c3ccc(OCCOCCOc4ccc(-c5nc6ccc(OC(F)(F)F)cc6[nH]5)nc4)cn3)[nH]c2c1,-4.84,-1.4,-0.682,-1.34
NC(=O)c1ccc(I)c([N+](=O)[O-])c1 [Iniparib (BSI-201)],0.0297,0.116,-1.36,-0.407
NC(=O)c1ccc[n+]([C@@H]2O[C@H](COP(=O)([O-])OP(=O)(O)OC[C@H]3O[C@@H](n4cnc5c(N)ncnc54)[C@H](O)[C@@H]3O)[C@@H](O)[C@H]2O)c1,-0.947,-0.124,-0.384,0.114
Nc1nc(N)nc(-c2cc(Cl)ccc2Cl)n1 [Irsogladine],0.544,0.801,1.41,-0.0146
C[C@]12CC[C@@H]3c4ccc(O)cc4CC[C@H]3[C@@H]1CC[C@@H]2OC(=O)CCC1CCCC1 [Estradiol Cypionate],0.199,-0.0944,-0.551,-0.631
CC(=O)Nc1nc2c(Oc3cc(-c4ccc(C(F)(F)F)cc4)ncn3)cccc2s1,0.0521,1.2,1.39,2.09
CCCCOc1ccc(C(=O)Nc2ccc(F)cc2F)cc1,0.264,0.381,0.237,-0.256
CC(C)(C)CC(C)(C)c1ccc(O)c(Cc2ccc(Cl)cc2Cl)c1 [Clofoctol],-1.16,0.233,0.941,1.47
COc1cc(/C=C/C(=O)N2CCN(CC(=O)N3CCCC3)CC2)cc(OC)c1OC [Cinepazide maleate],1.87,0.0176,0.536,0.0488
O=C1CCC(N2C(=O)c3ccccc3C2=O)C(=O)N1 (stereo unspecified) [Thalidomide],1.46,-0.45,0.754,1.09
Nc1ccccc1NC(=O)c1ccc(CNC(=O)OCc2cccnc2)cc1 [Entinostat (MS-275)],-7.06,-2.72,-2.09,-0.567
C#Cc1cccc(Nc2ncnc3cc(OCCOC)c(OCCOC)cc23)c1 [Erlotinib],0.409,0.411,0.153,-0.253
CN1C(C(=O)Nc2ccccn2)=C(O)c2ccccc2S1(=O)=O [Piroxicam],0.692,-0.481,-0.933,-0.206
O=C1C(O)=C([C@H]2CC[C@H](c3ccc(Cl)cc3)CC2)C(=O)c2ccccc21 [Atovaquone],0.407,-0.161,-0.0739,0.344
CC#C[C@]1(O)CC[C@H]2[C@@H]3CCC4=CC(=O)CCC4=C3[C@@H](c3ccc(N(C)C)cc3)C[C@@]21C [Mifepristone],-2.16,-3.29,-0.738,-0.805
COc1ccc([C@@H]2CC(=O)c3c(O)cc(O)cc3O2)cc1O [Hesperetin],-0.297,0.0841,0.155,-0.259
CCCNS(=O)(=O)Nc1ncnc(OCCOc2ncc(Br)cn2)c1-c1ccc(Br)cc1 [Macitentan],1.55,2.92,1.5,0.0361

Compound,nucleus area z-score [1],total neurite length per nucleus (z-score) [2],nucleus roundness z-score [3],KCl-induced FOS+/EGR-1+ double-positive nuclei fraction z-score [4]
Cn1cnc([N+](=O)[O-])c1Sc1ncnc2[nH]cnc12 [Azathioprine],-0.107,1.01,0.967,0.958
C[C@H]1C[C@H]2[C@@H]3CCC4=CC(=O)C=C[C@]4(C)[C@@]3(F)[C@@H](O)C[C@]2(C)[C@@]1(O)C(=O)CO [Betamethasone],1.49,-0.65,-0.0958,-0.227
CC(CCc1ccccc1)NCC(O)c1ccc(O)c(C(N)=O)c1 (stereo unspecified) [Labetalol HCl],1.72,-0.012,0.471,-0.083
Nc1ncnc2c1nc(Br)n2[C@@H]1O[C@@H]2COP(=O)(O)O[C@H]2[C@H]1O [8-Bromo-cAMP],-0.181,-0.223,-0.512,-0.705
CCN(C)S(=O)(=O)Nc1ccc(F)c(C(=O)c2c[nH]c3ncc(-c4cnc(C5CC5)nc4)cc23)c1F,2.23,0.762,-1.54,-0.291
Clc1ccc(CCC(Cn2ccnc2)Sc2c(Cl)cccc2Cl)cc1 (stereo unspecified) [Butoconazole nitrate],-4.3,-1.4,-1.97,1.36
CN(C)CC(c1ccc(O)cc1)C1(O)CCCCC1 (stereo unspecified) [Desvenlafaxine],-0.046,2.29,0.0285,1.3
Oc1cc(O)cc(/C=C/c2ccc(O)c(O)c2)c1 [Piceatannol],-0.134,-0.435,0.473,-0.618
Cc1nc(N(C)C(=O)Cc2ccc(-c3ccccn3)cc2)sc1S(N)(=O)=O [Pritelivir (BAY 57-1293)],0.41,1.52,0.932,0.801
CN(C[C@@H]1COCCO1)S(=O)(=O)Nc1ccc2ccc3ncc(-c4cnn(C)c4)cc3c(=O)c2c1,0.883,1.4,0.894,-0.481
CNS(=O)(=O)Cc1ccc2[nH]cc(CCN(C)C)c2c1 [Sumatriptan Succinate],0.75,0.184,0.0581,0.178
CC(C)=CCC/C(C)=C/CC/C(C)=C/CSc1ccccc1C(=O)O [Salirasib],0.822,-0.527,-0.488,0.524
O=C(c1ccc(OCCN2CCCCC2)cc1)c1c(-c2ccc(O)cc2)sc2cc(O)ccc12 [Raloxifene HCl],0.972,-1.6,0.149,0.0885
CCN(CC)CCOc1ccc(Nc2ncc3cc(-c4c(Cl)cccc4Cl)c(=O)n(C)c3n2)cc1,-2.42,-0.66,-4.35,1.08
CCCC(C)NC(=O)c1ccc(Cl)c(Cl)c1 (stereo unspecified),1.83,1.87,0.472,2.17
O=C1CCC[C@@H]2[C@H]3CCC[N+]4([O-])CCC[C@@H](CN12)[C@@H]34 (stereo partly specified) [Oxymatrine],1.32,-0.331,-0.0937,0.639
CC(C)(C)OC(=O)Nc1ccc(-c2cc(C(=O)NCCCCCCC(=O)NO)no2)cc1,-3.01,-2.03,-3.12,-1.21
C[N+]1(C)CCC(OC(=O)C(O)(c2ccccc2)C2CCCC2)C1 (stereo unspecified) [Glycopyrrolate],0.112,-0.252,-0.0305,3.23
O=C(CCc1ccc(O)cc1)c1c(O)cc(O)cc1O[C@@H]1O[C@H](CO)[C@@H](O)[C@H](O)[C@H]1O [Phlorizin],-0.66,1.09,0.572,0.208
O=C(O)CSc1nnc(Br)n1-c1ccc(C2CC2)c2ccccc12 [Lesinurad],0.404,-0.776,-0.495,-0.597

# 5 entries from above, set out differently:
Compound	nucleus area z-score [1]	total neurite length per nucleus (z-score) [2]	nucleus roundness z-score [3]	KCl-induced FOS+/EGR-1+ double-positive nuclei fraction z-score [4]
Cc1nc(N(C)C(=O)Cc2ccc(-c3ccccn3)cc2)sc1S(N)(=O)=O [Pritelivir (BAY 57-1293)]	0.41	1.52	0.932	0.801
CN(C[C@@H]1COCCO1)S(=O)(=O)Nc1ccc2ccc3ncc(-c4cnn(C)c4)cc3c(=O)c2c1	0.883	1.4	0.894	-0.481
CNS(=O)(=O)Cc1ccc2[nH]cc(CCN(C)C)c2c1 [Sumatriptan Succinate]	0.75	0.184	0.0581	0.178
CC(C)=CCC/C(C)=C/CC/C(C)=C/CSc1ccccc1C(=O)O [Salirasib]	0.822	-0.527	-0.488	0.524
O=C(c1ccc(OCCN2CCCCC2)cc1)c1c(-c2ccc(O)cc2)sc2cc(O)ccc12 [Raloxifene HCl]	0.972	-1.6	0.149	0.0885

# Further records follow.

Compound,nucleus area z-score [1],total neurite length per nucleus (z-score) [2],nucleus roundness z-score [3],KCl-induced FOS+/EGR-1+ double-positive nuclei fraction z-score [4]
CC1=NN(c2ccccc2)C(=O)C1 [Edaravone],-0.145,-0.307,-0.94,0.591
O=C(O)CCC(=O)Nc1ccc(Br)cn1 [Bikinin],0.797,0.144,0.065,1.26
CC(C)(C)C(=O)Oc1ccc(S(=O)(=O)Nc2ccccc2C(=O)NCC(=O)O)cc1 [Sivelestat (ONO-5046)],0.718,0.35,0.587,-0.619
C[C@H]1CNCCCN1S(=O)(=O)c1cccc2cncc(F)c12 [Ripasudil (K-115) hydrochloride dihydrate],1.09,-1.12,-3.1,0.257
CC1(COc2ccc3c(c2)ncn3-c2ccc3cccc(N4CCC(N)CC4)c3n2)COC1,0.165,0.72,-0.381,0.108
CN(C)CCOC(=O)COc1ccc(Cl)cc1 [Meclofenoxate (Centrophenoxine) HCl],0.306,0.102,0.2,0.919
CN1CCC(=C2c3ccccc3C=Cc3ccccc32)CC1 [Cyproheptadine HCl],-2,-1.09,-1.55,0.138
Cc1ccc(CNc2ncnc3ccc(-c4ccc(CO)o4)cc23)o1,1,0.354,-0.818,1.26
C=CCc1cccc(/C=N/NC(=O)CN2CCN(Cc3ccccc3)CC2)c1O,-0.91,-1.47,-2.92,0.385
N=C1NC(=O)/C(=C/c2ccc(O)cc2)S1 [Mirin],2.61,0.0664,0.982,0.907
c1ccc2c(-c3cnn4cc(-c5ccc(N6CCNCC6)cc5)cnc34)ccnc2c1,-18.5,-6.15,-10.4,-0.714
CC(CNC(=O)c1cccnc1)NC(=O)c1cccnc1 (stereo unspecified) [Nicaraven],1.32,-1.21,-0.751,-0.23
CCCC1O[C@@H]2C[C@H]3[C@@H]4CCC5=CC(=O)C=C[C@]5(C)[C@H]4[C@@H](O)C[C@]3(C)[C@]2(C(=O)CO)O1 (stereo partly specified) [Budesonide],1.06,0.0499,0.53,0.307
CC1(C)S[C@@H]2[C@H](NC(=O)C(C(=O)O)c3ccccc3)C(=O)N2[C@H]1C(=O)O (stereo partly specified) [Carbenicillin disodium],0.449,-0.448,-1.34,-0.736
NC(=O)Cc1cccc(C(=O)c2ccccc2)c1N [Nepafenac],2.32,0.452,-0.752,2.34
CCN1CCCC1CNC(=O)c1cc(S(N)(=O)=O)ccc1OC (stereo unspecified) [Sulpiride],0.00127,-1.38,-0.418,0.229
CN1CCN(c2c(F)cc3c(=O)c(C(=O)O)cn4c3c2OCN4C)CC1 [Marbofloxacin],1.04,-1.05,-0.972,-0.831
CCOC(=O)c1[nH]c2cc(Cl)ccc2c1C(C(=O)NC(C)(C)C)N(C=O)Cc1ccc(Cl)cc1 (stereo unspecified),0.527,0.164,-0.459,-1.07
CO/N=C(\C(=O)N[C@@H]1C(=O)N2C(C(=O)OCOC(=O)C(C)(C)C)=C(/C=C\c3scnc3C)CS[C@H]12)c1csc(N)n1 [Cefditoren Pivoxil],0.283,0.182,0.242,-0.062
